Results are given in words; binding and its absence hold for the method and conditions named. In cells and extracts the contact can be indirect. Binding can be weak; no strength is given. Tags and fused reporters may be left off the sequences shown.

Protein sequences, listed by entry. Tags and fused reporters are not part of them. Lines headed by an entry give the natural chain unless they say otherwise; changes in a name come on top.
UniProt P16070: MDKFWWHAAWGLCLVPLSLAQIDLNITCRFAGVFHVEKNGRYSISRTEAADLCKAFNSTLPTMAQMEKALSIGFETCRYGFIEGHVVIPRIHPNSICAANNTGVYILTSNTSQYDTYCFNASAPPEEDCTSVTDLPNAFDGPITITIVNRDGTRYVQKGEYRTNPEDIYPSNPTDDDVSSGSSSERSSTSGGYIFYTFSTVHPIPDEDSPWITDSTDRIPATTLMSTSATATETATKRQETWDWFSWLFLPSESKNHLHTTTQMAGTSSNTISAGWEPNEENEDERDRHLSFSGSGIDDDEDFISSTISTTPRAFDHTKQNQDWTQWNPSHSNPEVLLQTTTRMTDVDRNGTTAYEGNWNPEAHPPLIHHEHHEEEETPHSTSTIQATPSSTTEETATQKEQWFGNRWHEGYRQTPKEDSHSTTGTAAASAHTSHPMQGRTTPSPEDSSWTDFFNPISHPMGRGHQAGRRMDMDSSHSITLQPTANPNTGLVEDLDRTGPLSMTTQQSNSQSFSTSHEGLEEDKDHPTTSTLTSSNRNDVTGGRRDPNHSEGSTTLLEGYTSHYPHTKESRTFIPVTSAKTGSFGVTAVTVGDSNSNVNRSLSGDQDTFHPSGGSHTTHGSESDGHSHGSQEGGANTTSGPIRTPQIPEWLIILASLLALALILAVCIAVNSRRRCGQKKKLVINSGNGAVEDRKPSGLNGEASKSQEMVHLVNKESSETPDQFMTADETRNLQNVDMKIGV

This test deals with Flag-tagged CD44 mutant CD44.m2 (point mutations in domain II) (human) (UniProt P16070). Put plainly: co-IP.

B1: HA-tagged CD81 (pCMV3-HA-CD81, Sino Biological) (protein, UniProt P60033 10-236)
chain: IKYLLFVFNFVFWLAGGVILGVALWLRHDPQTTNLLYLELGDKPAPNTFYVGIYILIAVGAVMMFVGFLGCYGAIQESQCLLGTFFTCLVILFACEVAAGIWGFVNKDQIAKDVKQFYDQALQQAVVDDDANNAKAVVKTFHETLDCCGSSTLTALTTSVLKNNLCPSGSNIISNLFKEDCHQKIDDLFSGKLYLIGIAAIVVAVIMIFEMILSMVLCCGIRNSSVY
As for B1, the binding result is “binds”.
